These are yes or no findings as the source states them, for the method shown. Binding seen in cells or lysates may run through a third protein. Some binding calls cover weakened binding; strength is not graded here. Tags and fused reporters may be left off the sequences shown.
Columns and labels:
[1] = molecular target: T1, GST fused to the Vav SH3 domain (GST-SH3v) (UniProt P15498); assay: GST pull-down of in vitro translated HA-tagged E-Syt2
T1 sequence (looked up): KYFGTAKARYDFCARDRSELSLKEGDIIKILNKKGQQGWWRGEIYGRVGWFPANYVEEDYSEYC

[2] = molecular target: T1, GST fused to the Vav SH3 domain (GST-SH3v); assay: GST pull-down of in vitro translated HA-ESYT2, anti-HA blot; less than with the CARMA1 SH3 domain

- binding [1]: binds
- binding [2]: binds
B1: in vitro translated HA-tagged E-Syt2 (protein, not shown: small tags and cut ends)
chain: MTPPSRAEAGVRRSRVPSEGRWRGAEPPGISASTQPASAGRAARHCGAMSGARGEGPEAGAGGAGGRAAPENPGGVLSVELPGLLAQLARSFALLLPVYALGYLGLSFSWVLLALALLAWCRRSRGLKALRLCRALALLEDEERVVRLGVRACDLPAWVHFPDTERAEWLNKTVKHMWPFICQFIEKLFRETIEPAVRGANTHLSTFSFTKVDVGQQPLRINGVKVYTENVDKRQIILDLQISFVGNCEIDLEIKRYFCRAGVKSIQIHGTMRVILEPLIGDMPLVGALSIFFLRKPLLEINWTGLTNLLDVPGLNGLSDTIILDIISNYLVLPNRITVPLVSEVQIAQLRFPVPKGVLRIHFIEAQDLQGKDTYLKGLVKGKSDPYGIIRVGNQIFQSRVIKENLSPKWNEVYEALVYEHPGQELEIELFDEDPDKDDFLGSLMIDLIEVEKERLLDEWFTLDEVPKGKLHLRLEWLTLMPNASNLDKVLTDIKADKDQANDGLSSALLILYLDSARNLPSGKKISSNPNPVVQMSVGHKAQESKIRYKTNEPVWEENFTFFIHNPKRQDLEVEVRDEQHQCSLGNLKVPLSQLLTSEDMTVSQRFQLSNSGPNSTIKMKIALRVLHLEKRERPPDHQHSAQVKRPSVSKEGRKTSIKSHMSGSPGPGGSNTAPSTPVIGGSDKPGMEEKAQPPEAGPQGLHDLGRSSSSLLASPGHISVKEPTPSIASDISLPIATQELRQRLRQLENGTTLGQSPLGQIQLTIRHSSQRNKLIVVVHACRNLIAFSEDGSDPYVRMYLLPDKRRSGRRKTHVSKKTLNPVFDQSFDFSVSLPEVQRRTLDVAVKNSGGFLSKDKGLLGKVLVALASEELAKGWTQWYDLTEDGTRPQAMT
